# Measured values reported in paper PMC7819943, “Rice protein-binding microarrays: a tool to detect cis-acting elements near promoter regions in rice”.
# Some of the results follow.
# Molecular target: T1, OsSMF1 (Oryza sativa, UniProt Q6ZLB0 1-436)
# T1 sequence: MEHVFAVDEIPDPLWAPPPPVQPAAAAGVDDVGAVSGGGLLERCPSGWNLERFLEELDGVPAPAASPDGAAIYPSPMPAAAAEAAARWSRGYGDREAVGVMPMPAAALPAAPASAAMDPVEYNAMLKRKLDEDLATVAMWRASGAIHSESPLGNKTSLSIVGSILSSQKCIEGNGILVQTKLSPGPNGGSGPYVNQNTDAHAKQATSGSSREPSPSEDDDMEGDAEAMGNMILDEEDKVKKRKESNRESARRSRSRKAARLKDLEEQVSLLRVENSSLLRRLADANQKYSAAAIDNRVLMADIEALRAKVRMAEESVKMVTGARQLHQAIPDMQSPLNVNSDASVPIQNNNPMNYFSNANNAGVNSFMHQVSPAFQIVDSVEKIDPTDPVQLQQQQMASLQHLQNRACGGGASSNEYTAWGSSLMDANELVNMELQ
# Assay: protein-binding microarray (RPBM); PBS, 2% BSA, 51.3 ng/ul salmon testes DNA, 50 uM zinc acetate, 200 nM TF, 25 C, 1 h; high values mean tight binding
# Conditions: protein: recombinant; tags: N-terminal polyhistidine and DsRed monomer fusion (pET32a); chain copies: 2; label: CyDye5-dUTP incorporated in the synthesized complementary strand; 3' TTTTT single-stranded linker to array surface; dsDNA, one strand shown
# Outline: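 Transcription factors were made in E. coli BL21-CodonPlus as N-terminal fusions to a polyhistidine tag and DsRed, then purified on Ni–NTA. After primer extension with Cy5-dUTP and blocking with 2% BSA, a custom Agilent array was exposed for 1 h at 25 °C to 200 nM protein in PBS, 2% BSA, salmon testes DNA and 50 µM zinc acetate. Washed arrays were scanned on an Axon 4000B, and the binding signal is per-feature fluorescence intensity in arbitrary units.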
row,Sequence,binding signal
1,AAGTAGTGTCTATGGTGCCATGTCAATAGGACATCATAATCGGAGTCACCTAGTGCAG,3920 fluorescence intensity (a.u.)
2,AATCTTCTGGCGTAACAATGTGAAGGATAAACAAGTGGGTCGGAGTCACCTAGTGCAG,3160 fluorescence intensity (a.u.)
3,GCACGGCGTGGCGGTCAATTATCGCCTCTACACCGTCTCGCGGAGTCACCTAGTGCAG,3190 fluorescence intensity (a.u.)
4,AACCAGCAACTGGGCCGTGCTGACGTAAGGCCCATACAACCGGAGTCACCTAGTGCAG,14800 fluorescence intensity (a.u.)
5,CATTCAGCCGACACGCCTCTCTCTCTCTCTCCGCTGCTGCCGGAGTCACCTAGTGCAG,3360 fluorescence intensity (a.u.)
6,GAAGCCAGCAGAGCAGACGAGGAAACCGAGGCTCCAGGGGCGGAGTCACCTAGTGCAG,14100 fluorescence intensity (a.u.)
7,TGCTGTCTGTTATGATACATCATACATAAGCTGACTGGATCGGAGTCACCTAGTGCAG,4650 fluorescence intensity (a.u.)
8,TTCATTAATTAATAATACTAGCCTAGTGGTGACACCACCCCGGAGTCACCTAGTGCAG,4060 fluorescence intensity (a.u.)
9,CCCACTGCCTCGCTGCTGACCTCGTGGCTTTGTTGGCCTCCGGAGTCACCTAGTGCAG,3550 fluorescence intensity (a.u.)
10,TAGATTTTAATATGCTTCGTCATGGACCACGAAATTAAATCGGAGTCACCTAGTGCAG,3150 fluorescence intensity (a.u.)
11,AGTCGCGACCCACTCCATCGGTCCCAACCCTCTGTCTTCTCGGAGTCACCTAGTGCAG,22700 fluorescence intensity (a.u.)
12,ACAGGTGGGGCTCACCTGTCGGCGTCCCGGGGAGAGAGGGCGGAGTCACCTAGTGCAG,3250 fluorescence intensity (a.u.)
13,ATTAATACCTGGTCCCACATGTCATACACACGCTGCGTCTCGGAGTCACCTAGTGCAG,3630 fluorescence intensity (a.u.)
14,CGCAACGACGTGGCTACCTCGATGCGTGACGTCCCTGGCCCGGAGTCACCTAGTGCAG,7230 fluorescence intensity (a.u.)
15,TTGCTAGTTGGTACAAAGTAAGCATGCAACACTTGTATGCCGGAGTCACCTAGTGCAG,42200 fluorescence intensity (a.u.)
16,AAGTTGTCTTCTCCAATCTCCACTCCCCACCCATCGATCACGGAGTCACCTAGTGCAG,12800 fluorescence intensity (a.u.)
17,AGAGGGGTGGCCTCACAAATGTGATGTGGTATGTTCCTATCGGAGTCACCTAGTGCAG,3900 fluorescence intensity (a.u.)
18,ACTTATCCTGCAACTGTACCTGCTCTGACACGACCATTCCCGGAGTCACCTAGTGCAG,3750 fluorescence intensity (a.u.)
19,AATGAGTAACTTTCTGCTTGTGTGTCACTCTACTCTTTGGCGGAGTCACCTAGTGCAG,5400 fluorescence intensity (a.u.)
20,GCTCAGCATCTTCGAATCCTCTTCCGCCGCCAGCATTCTCCGGAGTCACCTAGTGCAG,10600 fluorescence intensity (a.u.)
21,ACTGATCATCTCTCCGACTCACCAGTCACCACCACTTGTCCGGAGTCACCTAGTGCAG,3220 fluorescence intensity (a.u.)
22,GCTGATCGACACGTGTGCTAAGTATTACACACCTGGTAAGCGGAGTCACCTAGTGCAG,12800 fluorescence intensity (a.u.)
23,CACATTCGGCACCGCCCTCCGAAGCGCGACACGTGGCCGTCGGAGTCACCTAGTGCAG,13100 fluorescence intensity (a.u.)
24,CCGGCAAGCGGCGCGTGGCGAAGGTGATGACGGTGGACGGCGGAGTCACCTAGTGCAG,5350 fluorescence intensity (a.u.)
25,CCATTAACCAACCTCGCGTCATCTCTCCCATCTCCCATATCGGAGTCACCTAGTGCAG,3220 fluorescence intensity (a.u.)
26,AGTAATACTCAAGGAAAAGGAGATGTCAGTCACGGTCACACGGAGTCACCTAGTGCAG,3220 fluorescence intensity (a.u.)
27,TCTAATTAGCTAGGTCCATTGATTCATCATCATCTCCATTCGGAGTCACCTAGTGCAG,4260 fluorescence intensity (a.u.)

row,Sequence,binding signal
1,ATAAAGTCTTTAGACCGTCCTATTTGACCCAGATAATATTCGGAGTCACCTAGTGCAG,3730 fluorescence intensity (a.u.)
2,CCTCACTCTCGTGGGCTCACCACCTCACCTCGCTATAAGTCGGAGTCACCTAGTGCAG,3340 fluorescence intensity (a.u.)
3,AACGAATCTTTTAAGCTTAATTGCGTCATGATTTGACAATCGGAGTCACCTAGTGCAG,3960 fluorescence intensity (a.u.)
4,GTTGTCAGTTGGATAGAACCAGTCCAGGAACGTGTGGCCCCGGAGTCACCTAGTGCAG,3240 fluorescence intensity (a.u.)
5,CTAGCTTAATCTTTCTTCGTTGTTCTACATCCTGCTAGTTCGGAGTCACCTAGTGCAG,20600 fluorescence intensity (a.u.)
6,TTATTAGTAGTCTCCTTGGATCAGGTGGAGCTTGCTTGTTCGGAGTCACCTAGTGCAG,3610 fluorescence intensity (a.u.)
7,CTGAAACCAACATCCAAGTCATCATGTCCAAGATGTCTCCCGGAGTCACCTAGTGCAG,6640 fluorescence intensity (a.u.)
8,ACCATACGGTGGGCGGCGACAAAGGCGACGCGGCGTGTTTCGGAGTCACCTAGTGCAG,4160 fluorescence intensity (a.u.)
9,GTGCGACACCTACCTGTCGCTGACCATGGTGATCCGCTTCCGGAGTCACCTAGTGCAG,3610 fluorescence intensity (a.u.)
10,TCAGGAACTGGTCGGTGAAGTGCGGCCACGCCACCACCGGCGGAGTCACCTAGTGCAG,3370 fluorescence intensity (a.u.)
11,TCGACGAATATATAATTAGTCCCTGTCCCACGTGCCATTTCGGAGTCACCTAGTGCAG,5070 fluorescence intensity (a.u.)
12,GCCGTGCAATGACACTAGCCATTGTGACTGGCCTAATTGCCGGAGTCACCTAGTGCAG,15200 fluorescence intensity (a.u.)
13,TTGAATGCTTTGTATCGTCGTCATCATCAGTGAAGGCTACCGGAGTCACCTAGTGCAG,3510 fluorescence intensity (a.u.)
14,TTTTATTTCATTATATGATCCCATCAAATATAAATTAGCACGGAGTCACCTAGTGCAG,48500 fluorescence intensity (a.u.)
15,AGAGAGGGAGGGCAGAGGCCTTTGGTGTCCCTTCCAGTCACGGAGTCACCTAGTGCAG,3200 fluorescence intensity (a.u.)
16,TTGTTGATTTGTGCCAGTTTTCTCCTATTTCAGTTAGTAGCGGAGTCACCTAGTGCAG,3400 fluorescence intensity (a.u.)
17,TGGTGGGTTTCGGGTCCGCGCCTGCGCCGATGCGGCGATGCGGAGTCACCTAGTGCAG,18200 fluorescence intensity (a.u.)
18,TGCTGCAGCATGCATGTATGACAAGGCTCTGCACTATGACCGGAGTCACCTAGTGCAG,3190 fluorescence intensity (a.u.)
19,AAAAGGTTGGCGTCATTTTGTAGTATATACGTGTAGGTGTCGGAGTCACCTAGTGCAG,4510 fluorescence intensity (a.u.)
20,TTTCAGTGAACAGATTATTCGGCGATGATGACTCCTGGTACGGAGTCACCTAGTGCAG,3640 fluorescence intensity (a.u.)
21,CCACCACGTACAGTGCTTTCCTAGGCAGAAGCCCACTATCCGGAGTCACCTAGTGCAG,3490 fluorescence intensity (a.u.)
22,AATTGATCTTCAGAGCCCACGTAGGTATTAGACTTTCCTACGGAGTCACCTAGTGCAG,6290 fluorescence intensity (a.u.)
23,TATAGTCTACTTAACTAGCTAATTAAGCCATTGCAACGGGCGGAGTCACCTAGTGCAG,3840 fluorescence intensity (a.u.)
24,GAACAAACTATCTCACGATCTCACCGTTTAGTCCTTGATGCGGAGTCACCTAGTGCAG,3630 fluorescence intensity (a.u.)
25,CCTCAATGACATGTGGGTCTATATATGTCTATGACATGTGCGGAGTCACCTAGTGCAG,3540 fluorescence intensity (a.u.)
26,CTCCTCCTCGCCTCCTCGGTGACTCCGCCCGCCGCCGCTGCGGAGTCACCTAGTGCAG,3290 fluorescence intensity (a.u.)
27,CAGGTAGCTGCATCGGGCCGCGGGCGCCACCACAACCAGCCGGAGTCACCTAGTGCAG,3300 fluorescence intensity (a.u.)

# Two entries picked at random from those above, as already listed:
row,Sequence,binding signal
4,GTTGTCAGTTGGATAGAACCAGTCCAGGAACGTGTGGCCCCGGAGTCACCTAGTGCAG,3240 fluorescence intensity (a.u.)
20,TTTCAGTGAACAGATTATTCGGCGATGATGACTCCTGGTACGGAGTCACCTAGTGCAG,3640 fluorescence intensity (a.u.)
